Test system: hSIE oligonucleotide probe
Test: Integrity of IS3 295-treated hSIE oligonucleotide probe

## CCC(O)N1CCN(C(O)CC)CC1 (centres unmarked) [IS3 295]
Oligonucleotide melting and re-annealing study
  overall integrity of treated hSIE oligonucleotide: preserved
Oligonucleotide treated 30 minutes, then radiolabeled
  in vitro binding activity of Stat3 to compound-treated hSIE probe: no observable effect

Source: patent US7807662B2, “Platinum IV complex inhibitor” (University of South Florida, priority 2004, dated 2010)
